Measurements: publication PMC4908412, “β-arrestin-1 contributes to brown fat function and directly interacts with PPARα and PPARγ” (Scientific Reports, 2016)
Results are given in words; binding and its absence hold for the method and conditions named. For part of these data: Binding seen in cells or lysates may run through a third protein. Some results given as binding are weak or reduced against the parent protein; the word gives no strength.

By UniProt entry, the sequences of proteins in these tests, tags left out.
UniProt P49407: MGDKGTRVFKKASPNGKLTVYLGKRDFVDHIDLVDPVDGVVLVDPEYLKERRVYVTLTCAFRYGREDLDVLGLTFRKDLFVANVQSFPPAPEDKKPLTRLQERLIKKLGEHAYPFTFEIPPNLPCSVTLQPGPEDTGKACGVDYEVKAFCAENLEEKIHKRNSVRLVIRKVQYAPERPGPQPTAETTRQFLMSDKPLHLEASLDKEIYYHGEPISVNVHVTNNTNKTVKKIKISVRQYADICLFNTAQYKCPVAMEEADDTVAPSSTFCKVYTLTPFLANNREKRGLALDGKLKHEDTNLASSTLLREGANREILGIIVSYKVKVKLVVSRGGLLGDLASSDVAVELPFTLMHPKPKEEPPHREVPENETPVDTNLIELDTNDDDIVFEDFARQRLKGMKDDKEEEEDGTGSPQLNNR
UniProt P37231: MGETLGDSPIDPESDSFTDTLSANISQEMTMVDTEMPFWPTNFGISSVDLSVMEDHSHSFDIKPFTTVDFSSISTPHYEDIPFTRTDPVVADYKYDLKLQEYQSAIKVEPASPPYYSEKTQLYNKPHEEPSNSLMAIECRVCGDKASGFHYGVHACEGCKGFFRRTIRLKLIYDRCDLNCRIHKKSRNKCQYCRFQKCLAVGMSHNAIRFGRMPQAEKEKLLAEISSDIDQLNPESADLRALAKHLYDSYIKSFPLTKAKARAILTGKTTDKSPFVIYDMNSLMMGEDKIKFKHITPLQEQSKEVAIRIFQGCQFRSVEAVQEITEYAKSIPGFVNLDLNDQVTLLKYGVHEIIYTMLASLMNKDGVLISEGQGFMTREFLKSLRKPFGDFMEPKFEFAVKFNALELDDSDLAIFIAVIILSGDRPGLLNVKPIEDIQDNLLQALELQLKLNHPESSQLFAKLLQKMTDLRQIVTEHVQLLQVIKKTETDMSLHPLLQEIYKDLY
UniProt P29066: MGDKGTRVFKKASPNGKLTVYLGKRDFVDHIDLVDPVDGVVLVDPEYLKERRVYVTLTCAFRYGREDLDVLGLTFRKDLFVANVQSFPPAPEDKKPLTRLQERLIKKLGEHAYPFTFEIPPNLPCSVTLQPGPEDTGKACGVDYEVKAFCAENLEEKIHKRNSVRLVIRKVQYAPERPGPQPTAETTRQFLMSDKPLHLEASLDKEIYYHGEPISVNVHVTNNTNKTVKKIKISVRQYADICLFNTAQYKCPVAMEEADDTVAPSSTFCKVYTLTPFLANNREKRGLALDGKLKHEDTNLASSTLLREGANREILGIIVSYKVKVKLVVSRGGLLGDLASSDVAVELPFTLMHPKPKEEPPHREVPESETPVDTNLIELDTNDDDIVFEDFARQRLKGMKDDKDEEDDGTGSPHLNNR

T1: PPARα-LBD L302G/N303G (human) (UniProt Q07869)
T1 sequence: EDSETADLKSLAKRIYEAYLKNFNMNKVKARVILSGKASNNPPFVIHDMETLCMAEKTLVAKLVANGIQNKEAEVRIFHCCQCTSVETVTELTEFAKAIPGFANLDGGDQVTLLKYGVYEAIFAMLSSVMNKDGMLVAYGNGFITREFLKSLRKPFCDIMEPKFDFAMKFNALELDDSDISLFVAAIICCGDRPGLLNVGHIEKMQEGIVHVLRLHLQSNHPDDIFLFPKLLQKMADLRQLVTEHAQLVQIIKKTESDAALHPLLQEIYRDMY


Assays:
[1] = biological target: endogenous β-arrestin-1 (HepG2 cells) (human (endogenous in HepG2)) (UniProt P49407); test: co-IP; endogenous proteins; HepG2 lysate, IP with mouse anti-β-arrestin-1 antibody overnight, protein G affinity gel, Western blot
[2] = biological target: T1, PPARα-LBD L302G/N303G (human); test: BLI; Octet Red 96; 50 μg/ml biotinylated PPARα-LBD or PPARγ-LBD (or their mutants) immobilised on streptavidin biosensors; analyte β-arrestin-1, βarr1M or peptides in solution (single 2 μM or serial dilutions, β-arrestin-1 0.5–32 μM); 25 °C; 2:1 heterogeneous ligand model and steady-state analysis; both purified

binding [1] | binding [2] | Molecule
binds | – | endogenous PPARγ (HepG2 cells) (from UniProt P37231 1-505)
– | binds | β-arrestin-1 (recombinant rattus β-arrestin-1) (from UniProt P29066 1-418)
binds | – | endogenous PPARα (HepG2 cells) (protein, UniProt Q07869 1-468) MVDTESPLCPLSPLEAGDLESPLSEEFLQEMGNIQEISQSIGEDSSGSFGFTEYQYLGSCPGSDGSVITDTLSPASSPSSVTYPVVPGSVDESPSGALNIECRICGDKASGYHYGVHACEGCKGFFRRTIRLKLVYDKCDRSCKIQKKNRNKCQYCRFHKCLSVGMSHNAIRFGRMPRSEKAKLKAEILTCEHDIEDSETADLKSLAKRIYEAYLKNFNMNKVKARVILSGKASNNPPFVIHDMETLCMAEKTLVAKLVANGIQNKEAEVRIFHCCQCTSVETVTELTEFAKAIPGFANLDLNDQVTLLKYGVYEAIFAMLSSVMNKDGMLVAYGNGFITREFLKSLRKPFCDIMEPKFDFAMKFNALELDDSDISLFVAAIICCGDRPGLLNVGHIEKMQEGIVHVLRLHLQSNHPDDIFLFPKLLQKMADLRQLVTEHAQLVQIIKKTESDAALHPLLQEIYRDMY
